Results taken from PubChem BioAssay AID1347423 (Functional Genomics Laboratory (NCATS/FGL), 2020).
In all, about 52,000 sequences went through this assay and about 210 (0.4%) were called active.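 The calls were made as follows: active = gene whose silencing raises cell survival under the drug, median off-target-corrected z-score across its silencing RNAs 2 or more; inactive = the rest.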 The list shows a part of the results.

experiment: Resistance to Poly (ADP-Ribose) Polymerase inhibitor: Gene Identification via Genome-wide siRNA Screen; settings: mouse BRCA2 R2336H ES cells, olaparib, CellTiter-Glo viability; stronger effect = higher value
Procedure, shortened: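 Genome-wide siRNA screen (3 siRNAs/gene, 20 nM) in mouse ES cells carrying hypomorphic BRCA2 R2336H; olaparib 500 nM added 48 h post-transfection, CellTiter-Glo viability 72 h later. Normalized to plate-median negative control; MAD z-scores, gene median, seed-adjusted.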

For GGCAGAUGUGUUUGCUUUUTT against Pbk, which z-score is on record?
Its z-score is inactive: 0.896.

For “GCUGUAAAAUUGUUCCUAATT against 1700081D17Rik”, which z-score is on record?
Its z-score is inactive: -0.113.

For “GGGAGAGAUACGGAAAGAGTT against 4932417I16Rik”, which z-score is on record?
Its z-score is inactive: -1.8.

Which z-score does the source give for CCAUCGACUGUUUCAUCCUTT against Olfr987 here?
Its z-score is inactive: 0.248.

For GGAACUUCAGAGUAAACCUTT against H2-T23, which z-score is on record?
The z-score was inactive: 0.428.

With GGUGAGCCUGAGAUUUAAATT against Mcpt6 as the sequence, how does the z-score read?
Its z-score is inactive: -0.905.

For “GGACUUUCUGAUGGACUUGTT against Ng23-pending”, which z-score is on record?
Its z-score is inactive: -0.0306.

For GCUGGAGAUCUAAAAACAGTT against Mphosph10, which z-score is on record?
The z-score was inactive: -0.233.

For GCAGCACAGUACUAUCUCGTT against Ttc4, which z-score is on record?
The z-score was inactive: -1.67.

For CCAAGAUUCAUAAGAAGGCTT against Tas2r131, which z-score is on record?
Its z-score is inactive: 0.58.

With “GGAUAUCGAGGAUGUACUGTT against 1110008L20Rik” as the sequence, how does the z-score read?
Its z-score is inactive: -1.08.

With “GCAGUGUGUCCUAAAGCUCTT against G430090F17Rik” as the sequence, how does the z-score read?
Its z-score is inactive: 0.366.

Which z-score does the source give for GGACCUGGAUGUGUCCUAUTT against Lrfn4 here?
Its z-score is inactive: 0.0646.

For GGAACCAGAAGAAUCAUUGTT against Casp4, which z-score is on record?
Its z-score is inactive: 0.0565.

With CCAAUUUUACCUGACUUCGTT against Cova1 as the sequence, how does the z-score read?
Its z-score is inactive: -0.0851.

With GUUCAGACAGAAACCCAGUTT against Fxyd3 as the sequence, how does the z-score read?
The z-score was inactive: -0.0885.

Which z-score does the source give for GCAUCAAUUGUCAGGAAAUTT against Rev3l here?
The z-score was inactive: -0.211.

Which z-score does the source give for GCCGAGAAUGAAGUUAGAATT against Mybl1 here?
The z-score was inactive: 0.133.

With GCUUAUUCCCAGGAGACCATT against Dmrtc2 as the sequence, how does the z-score read?
The z-score was inactive: 1.18.

For CCAGCCAUCUGCCAGUAUATT against LOC381438, which z-score is on record?
Its z-score is inactive: -0.552.

For GUGUCUCUGGCUGUUCUGATT against Atp5o, which z-score is on record?
Its z-score is inactive: -1.02.

For GCAUGGAUCCCUUUUCGAUTT against Tgfbr1, which z-score is on record?
Its z-score is inactive: 0.0538.

For CCAGUUACUAGUAAUACUCTT against Mcm3ap, which z-score is on record?
Its z-score is inactive: -0.797.

For “GCAUGUAUAACAGACCCAUTT against 4921511H03Rik”, which z-score is on record?
Its z-score is inactive: 1.1.

Which z-score does the source give for GCCACCAAUGUGCUUACAUTT against Cfhrb_4/2 here?
Its z-score is inactive: -1.11.

With GGGAAACUGACCAUCAAAATT against Cbara1 as the sequence, how does the z-score read?
Its z-score is inactive: 0.878.

Which z-score does the source give for GGUUCUGUCCGCUUUUUGGTT against Coasy here?
The z-score was inactive: 1.65.

For GGAGUGAGACAAGUGUAUGTT against Sprr1a, which z-score is on record?
The z-score was inactive: 1.01.

With AGUGUAAGAGCCUGUUUAUTT against Xlr as the sequence, how does the z-score read?
The z-score was inactive: 0.891.

For CCUGGGUUCUUUACCAUAATT against Mak10, which z-score is on record?
The z-score was inactive: 0.635.

Which z-score does the source give for GCUUACCAUGAAAAUAUUGTT against Kcnip1 here?
Its z-score is inactive: -0.579.

For “GGUUCUGGUAUAAGUUAACTT against B230362M20Rik”, which z-score is on record?
Its z-score is inactive: -0.366.

For GCUAGGAGCUAGGAAUCCGTT against Pdzk2, which z-score is on record?
The z-score was inactive: 0.624.

Which z-score does the source give for “GCGCAUCCGUGUGAAAUUCTT against 1700034H14Rik” here?
Its z-score is inactive: 0.117.

For GGGUUUGACUACAAGACUUTT against Mat2a, which z-score is on record?
Its z-score is inactive: 2.15.

With GCCAAGGAGAUCACACUUATT against Chrnd as the sequence, how does the z-score read?
The z-score was inactive: -0.735.

Which z-score does the source give for “GGGUGUCAACCCUUUAGAUTT against 4930565N07Rik” here?
Its z-score is inactive: 0.532.

Which z-score does the source give for CCUUGAGAAGUUAAACCAUTT against Specc1 here?
Its z-score is inactive: -0.483.

Which z-score does the source give for “GGCACUUCUUUCCAAGACGTT against 9830147J24Rik” here?
The z-score was inactive: 2.16.

With “CCUCAAAAUGGCUAUGGACTT against 1520401A03Rik” as the sequence, how does the z-score read?
Its z-score is inactive: 1.26.

For CCUGAAAAGCUAUUGGGUATT against Baat, which z-score is on record?
Its z-score is inactive: -0.796.

For GGAGAAGACUAUAAGCUUATT against Tmem5, which z-score is on record?
The z-score was inactive: 0.952.

For GGCUCAAGGUCUUUUCAACTT against Olfr702, which z-score is on record?
The z-score was inactive: 0.976.

With GGAAGUGCUGAAGGUGUACTT against Spire2 as the sequence, how does the z-score read?
The z-score was inactive: 0.683.

Which z-score does the source give for GGUGAAUUUACUCCUGAAATT against Asxl2 here?
Its z-score is inactive: -1.06.

Which z-score does the source give for GGAAUUGACUGUGUUAAGATT against Zfr here?
Its z-score is inactive: 0.749.

Which z-score does the source give for GGUCAGGAAACCAUCAUGATT against Ysg2 here?
The z-score was inactive: 1.85.

With GGUGGAAAUGGGAGAAUUUTT against Sparc as the sequence, how does the z-score read?
Its z-score is inactive: -0.346.

With “GCUCAGAAACACCUUCUGGTT against 2310011J03Rik” as the sequence, how does the z-score read?
The z-score was inactive: 0.201.

For CCUUGACCCAGAUUGAGAATT against BC024502, which z-score is on record?
Its z-score is inactive: -0.941.

For GUUGAUCGUGCAGAUCAAGTT against Diras1, which z-score is on record?
The z-score was inactive: 0.532.

With “GCUACGUAAACGGAAGGCUTT against 3830405G04Rik” as the sequence, how does the z-score read?
The z-score was inactive: 0.0565.

For GGGUUAUACCAAGUCCAUUTT against Mapk1, which z-score is on record?
Its z-score is active: 3.33.

Which z-score does the source give for GGUAAACGAUGUACAGUUGTT against Notch2 here?
Its z-score is inactive: 0.248.

With “GGUAAAAGCUGUUUGAGAGTT against 2010002N04Rik” as the sequence, how does the z-score read?
Its z-score is inactive: 1.5.

With “GGCCAUGUUCGAGCAAACUTT against 4833422F06Rik” as the sequence, how does the z-score read?
Its z-score is inactive: 0.85.

For GGUGAUGUGCCCAUGACAGTT against Ap1m2, which z-score is on record?
The z-score was inactive: 1.22.

With GCCUUCUUCUACCAUAGCATT against Thy28 as the sequence, how does the z-score read?
The z-score was inactive: 0.597.

For GGAUGAGCAGAAAUGUGUATT against AI840980, which z-score is on record?
Its z-score is inactive: -0.347.

With GGAUUGCAAAUGGUUUAAUTT against Chchd2 as the sequence, how does the z-score read?
The z-score was inactive: 0.963.

Which z-score does the source give for GGAUCAUAAAGUCAAAGCUTT against V1re12 here?
The z-score was inactive: -0.36.

For GGAGGAGACUCCUAAGAAGTT against BC016188, which z-score is on record?
The z-score was inactive: 0.636.

For GGAACAGGAUACGUACGCUTT against Acat1, which z-score is on record?
The z-score was inactive: 0.362.

For GGAUGAGUCUUUCUAGUUATT against Nipa1, which z-score is on record?
The z-score was inactive: -0.0749.

Which z-score does the source give for CCUUCAAUGAAAUAAGCACTT against Olfr1155 here?
The z-score was inactive: 0.54.

For GGAAGUUUACCAGUCUAUCTT against Pik3c2a, which z-score is on record?
Its z-score is inactive: -1.04.
